Values of other authors as cited in paper PMC11171525, “Properties and Functional Analysis of Two Chorismate Mutases from Maritime Pine” (Cells, 2024).

System: CMs from basal angiosperms
Settings: substrate chorismate; ref [30]; cited from earlier work

## C=C(O[C@@H]1C=C(C(=O)O)C=C[C@H]1O)C(=O)O [chorismate]
  Kcat: 15 to 22.8 s⁻¹
